This is a selection; strong and weak results do not stand in their true shares. At the low end of the ranking the order means little.

Chains of the proteins cited; added tags and fusions are not shown. Lines headed by an entry give the natural chain unless they say otherwise; changes in a name come on top.
UniProt O43186: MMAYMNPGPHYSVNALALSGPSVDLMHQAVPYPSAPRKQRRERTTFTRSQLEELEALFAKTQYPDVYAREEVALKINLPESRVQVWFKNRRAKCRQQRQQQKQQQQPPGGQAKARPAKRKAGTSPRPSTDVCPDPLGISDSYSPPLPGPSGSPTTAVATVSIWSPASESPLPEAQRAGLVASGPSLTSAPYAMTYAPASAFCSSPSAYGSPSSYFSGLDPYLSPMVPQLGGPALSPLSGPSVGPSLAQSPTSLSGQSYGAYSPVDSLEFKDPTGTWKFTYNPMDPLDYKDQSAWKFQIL

Common to all, as to experiment: DAPPL (digital affinity profiling via proximity ligation, sequencing)
Common to all, as to settings: 10 mM Tris-HCl pH 7.5, 50 mM NaCl, 1 mM DTT, 4% glycerol, room temperature, 30 min; GST-TFs on glutathione beads, 16-mer random dsDNA library, 0.1% …; high values mean tight binding; double strand, one strand shown; scale: fold enrichment (6-mer frequency, TF over GST control)

One test concerns the target T1, FEV (UniProt Q99581).
T1 sequence: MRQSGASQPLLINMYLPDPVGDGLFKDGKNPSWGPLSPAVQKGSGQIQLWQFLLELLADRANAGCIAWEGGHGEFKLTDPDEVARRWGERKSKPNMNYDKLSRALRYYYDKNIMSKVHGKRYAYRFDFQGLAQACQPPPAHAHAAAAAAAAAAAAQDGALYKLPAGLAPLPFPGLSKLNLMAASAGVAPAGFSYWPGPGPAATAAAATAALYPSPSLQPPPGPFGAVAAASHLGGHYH

The next test deals with CRX (UniProt O43186).
A further test deals with T2, ELF5 (UniProt Q9UKW6-2).
T2 sequence: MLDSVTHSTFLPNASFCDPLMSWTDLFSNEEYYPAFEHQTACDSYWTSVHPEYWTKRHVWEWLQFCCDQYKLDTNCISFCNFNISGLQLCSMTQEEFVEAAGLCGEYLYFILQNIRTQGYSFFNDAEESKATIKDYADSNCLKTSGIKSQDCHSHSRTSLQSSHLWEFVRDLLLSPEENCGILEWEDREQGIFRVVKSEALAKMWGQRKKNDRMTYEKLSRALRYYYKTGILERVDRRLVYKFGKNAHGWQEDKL

On to AGCTGG, for which the binding signal in the test with FEV was found to be 0.869; with CRX, 0.974; in the test with ELF5 it was 0.873.
For GAGAGT, the binding signal was found to be 0.338 with FEV, 0.312 with CRX and 0.344 with ELF5.
Turning to TCGGGC, the binding signal was determined as 0.505 in the test with FEV, 0.47 with CRX and 0.455 with ELF5.
Taken in the same sequence, the figures for GGGACG were 0.507, 0.301 and 0.497.
For TCAGCG, in that order: 0.864, 0.805 and 0.678.
Taken in the same sequence, the figures for TGCGTG were 0.652, 0.506 and 0.7.
On to GTCGGC, for which the figures for the binding signal with FEV, with CRX and with ELF5 were 0.36, 0.304 and 0.352, respectively.
Consider GTCAGG, for which the binding signal was found to be 0.498 with FEV, 0.388 with CRX and 0.551 with ELF5.
For GGGACC, in that order: 0.685, 0.459 and 0.613.
As to TCGGCG, the binding signal in the test with FEV was found to be 0.476; with CRX, 0.42; with ELF5, 0.454.
Turning to GACTGA, the binding signal in the test with FEV amounted to 0.832; with CRX, 0.69; with ELF5 it was 0.743.
AGGCCA: the binding signal with FEV amounted to 0.706; with CRX it was 0.589; with ELF5, 0.648.
As for AGGCAA, the binding signal with FEV amounted to 0.763; with CRX, 0.629; in the test with ELF5, 0.706.
For TCGGAC, the binding signal with FEV was 0.384; with CRX, 0.314; with ELF5, 0.337.
On to CAACGG, for which the binding signal with FEV worked out at 0.95; with CRX it was 0.821; in the test with ELF5, 0.914.
With GGTGGA, the binding signal with FEV was 0.541; with CRX it was 0.526; with ELF5, 0.593.
Taken in the same sequence, the figures for TCAGTG were 0.765, 0.813 and 0.681.
Taken in the same sequence, the figures for CTAGAG were 0.89, 0.966 and 0.815.
For GGAGTG, in that order: 0.398, 0.309 and 0.391.
With CAGGCA, the binding signal with FEV stood at 0.711; with CRX, 0.562; with ELF5, 0.663.
Taken in the same sequence, the figures for GTGGAC were 0.96, 0.635 and 0.878.
Taken in the same sequence, the figures for GAGGGA were 0.488, 0.509 and 0.53.
As for GGTGAC, the values for the binding signal in the test with FEV, with CRX and with ELF5 were 0.833, 0.532 and 0.756, respectively.
For GGTACG, in that order: 0.846, 0.596 and 0.846.
As for CGTCGG, the values for the binding signal with FEV, in the test with CRX and in the test with ELF5 were 0.424, 0.356 and 0.449, respectively.
Regarding GGACGG, the binding signal with FEV amounted to 0.538; with CRX it was 0.36; with ELF5, 0.554.
As for GGCGGG, the binding signal with FEV came to 0.315; with CRX it was 0.253; with ELF5 it was 0.28.
As to CAGAGA, the binding signal with FEV worked out at 0.63; with CRX, 0.683; with ELF5, 0.562.
As to AGATTG, the binding signal with FEV was determined as 0.78; with CRX it was 1.06; with ELF5, 0.713.
In the case of AGGGGT, the binding signal amounted to 0.793 with FEV, 0.757 in the test with CRX and 0.857 with ELF5.

These data come from article PMC7862700.
